The values below come from PMC12212275.

The chains behind the UniProt entries cited, without tags or fusion partners.
UniProt O00560: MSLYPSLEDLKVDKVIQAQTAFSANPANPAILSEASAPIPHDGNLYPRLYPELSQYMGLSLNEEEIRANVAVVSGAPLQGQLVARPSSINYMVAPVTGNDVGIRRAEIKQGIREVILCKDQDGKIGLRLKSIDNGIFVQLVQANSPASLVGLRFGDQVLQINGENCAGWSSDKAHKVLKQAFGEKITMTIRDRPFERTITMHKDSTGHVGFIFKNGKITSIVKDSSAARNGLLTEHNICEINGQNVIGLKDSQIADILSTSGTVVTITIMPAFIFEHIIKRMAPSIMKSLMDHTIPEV
UniProt Q9UHD2: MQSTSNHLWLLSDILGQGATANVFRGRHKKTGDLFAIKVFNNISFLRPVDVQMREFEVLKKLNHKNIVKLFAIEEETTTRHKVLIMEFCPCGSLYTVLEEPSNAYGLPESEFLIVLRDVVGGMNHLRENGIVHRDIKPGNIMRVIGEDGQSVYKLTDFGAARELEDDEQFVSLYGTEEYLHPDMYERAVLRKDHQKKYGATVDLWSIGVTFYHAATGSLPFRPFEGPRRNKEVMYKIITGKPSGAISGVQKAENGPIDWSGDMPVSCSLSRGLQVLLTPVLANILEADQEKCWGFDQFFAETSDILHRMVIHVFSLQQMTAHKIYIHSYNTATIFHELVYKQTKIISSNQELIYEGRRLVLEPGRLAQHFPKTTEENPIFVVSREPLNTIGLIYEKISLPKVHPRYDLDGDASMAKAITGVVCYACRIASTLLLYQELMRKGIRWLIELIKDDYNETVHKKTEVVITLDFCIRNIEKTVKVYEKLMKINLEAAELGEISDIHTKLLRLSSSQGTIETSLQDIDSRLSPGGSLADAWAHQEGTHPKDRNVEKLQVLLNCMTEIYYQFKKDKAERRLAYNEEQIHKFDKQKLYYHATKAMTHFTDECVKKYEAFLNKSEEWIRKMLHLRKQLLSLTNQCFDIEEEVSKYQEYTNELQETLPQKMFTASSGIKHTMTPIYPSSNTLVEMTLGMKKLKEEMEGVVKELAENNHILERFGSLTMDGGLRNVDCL

No constants are given. Whether binding was seen depends on the method and setting. Binding seen in cells or lysates may run through a third protein. A yes stands for co-enrichment or nearness to the bait. Other partners may have been found.

For the test, the target named is Flag-tagged syntenin-1 (human) (UniProt O00560). In words: affinity purification with mass spectrometry; Flag-syntenin-1 expressed in HEK293T; lysate with Flag magnetic beads overnight at 4 °C; washed with 1% Triton X-100 in PBS; control: cells with empty pcDNA3.4 plasmid.

With “TBK1 (endogenous, HEK293T) (from UniProt Q9UHD2 1-729) (enzyme)”, the binding entry is reported as “binds”.
